Record: PubChem BioAssay AID504793 (Drosophila RNAi Screening Center, 2011)
The screen tested about 23,000 reagents; shown is a random part of those with a known target gene and a result. In the full data, 62 (0.27%) were called active. 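Calls come from follow-up tests whose scores are not deposited, so confirmed genes may have low counts here; counts are not normalised per plate.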 Raw values vary from plate to plate and are shown uncorrected.

- Assay: 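Whole-genome screen for parts of the DNA damage checkpoint at G2/M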 (primary screen)
- System: Drosophila S2R+ cells
- Knock-down reagent: long dsRNA against Drosophila genes, about 0.25 µg dsRNA per well
- Timing: 4 days of dsRNA, then 4 hours of drug before read-out
- Treatment: doxorubicin 0.5 µM for 4 hours to cause double-strand breaks, in cells also given a low, harmless dose of dsRNA against nbs to sensitise the assay
- Detection: 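Mitotic index as the number of phospho-histone H3-positive cells in each well following doxorubicin, given as raw counts without normalisation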
- Scale: mitotic cells: higher = more cells in mitosis, weaker G2 arrest
- Rule for the call: 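a call needs confirmation in secondary tests, with other dsRNAs and a check of mitotic timing without damage, not just a high primary count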
- Meaning of the calls: active = confirmed in follow-up tests; inactive = not confirmed

For CSN6 [DRSC16593], the entry reads mitotic cells, replicate 1 = 21; active. Against d4 [DRSC04881] the deposit lists mitotic cells, replicate 1 = 5; inactive. Silencing of d4 [DRSC22674] resulted in: mitotic cells, replicate 1 = 18; inactive. Silencing of d4 [DRSC26581] gave: mitotic cells, replicate 1 = 9; inactive. mwh [DRSC08382] gave mitotic cells, replicate 1 = 8; inactive. mwh [DRSC27439] showed mitotic cells, replicate 1 = 7; inactive.

Against Mau2 [DRSC15550] the deposit lists mitotic cells, replicate 1 = 6; inactive. After knock-down of CG5273 [DRSC18612], the record shows mitotic cells, replicate 1 = 11; inactive. For P58IPK [DRSC16404], the entry reads mitotic cells, replicate 1 = 2; inactive. For P58IPK [DRSC27012] the deposit lists mitotic cells, replicate 1 = 2; inactive. CG31516 [DRSC11994] scored mitotic cells, replicate 1 = 5; inactive. mRpL49 [DRSC19908] showed mitotic cells, replicate 1 = 10; inactive.

CG17359 [DRSC10265] showed mitotic cells, replicate 1 = 6; inactive. Against CG17359 [DRSC24439], the values are mitotic cells, replicate 1 = 5; inactive. Knock-down of mil [DRSC15696] resulted in: mitotic cells, replicate 1 = 24; inactive. For CG3534 [DRSC15494], the entry reads mitotic cells, replicate 1 = 5; inactive. With knock-down of CG3534 [DRSC26023] the results were mitotic cells, replicate 1 = 8; inactive. Against CG7611 [DRSC11840] the deposit lists mitotic cells, replicate 1 = 9; inactive.

tapas [DRSC05950] gave mitotic cells, replicate 1 = 5; inactive. CG8860 [DRSC07291] gave mitotic cells, replicate 1 = 3; inactive. CG8860 [DRSC25286] gave mitotic cells, replicate 1 = 6; inactive. CG7650 [DRSC10898] gave mitotic cells, replicate 1 = 5; inactive. For CG7650 [DRSC29711] the deposit lists mitotic cells, replicate 1 = 4; inactive. CG6118 [DRSC23197] gave mitotic cells, replicate 1 = 12; inactive.

With knock-down of CG6118 [DRSC29922], the screen gave mitotic cells, replicate 1 = 13; inactive. Pi3K59F [DRSC04640] gave mitotic cells, replicate 1 = 5; inactive. Knock-down of Pi3K59F [DRSC28890] resulted in: mitotic cells, replicate 1 = 4; inactive. After knock-down of Ski6 [DRSC02491], the screen gave inactive. After knock-down of CG1246 [DRSC08275], the record shows mitotic cells, replicate 1 = 5; inactive. Knock-down of mav [DRSC17149] gave: mitotic cells, replicate 1 = 10; inactive.

ppk31 [DRSC13811] showed mitotic cells, replicate 1 = 19; inactive. For ppk31 [DRSC25391], the values are mitotic cells, replicate 1 = 9; inactive. Against CstF50 [DRSC15434] the deposit lists mitotic cells, replicate 1 = 2; inactive. Against GatB [DRSC15807], the values are mitotic cells, replicate 1 = 12; inactive. Depletion of GatB [DRSC27887] resulted in: mitotic cells, replicate 1 = 2; inactive.

Entries listed so far with an active call, once more:
CSN6 [DRSC16593] — mitotic cells, replicate 1 = 21; Call = active
